# Values quoted from earlier work as cited in patent US6482830B1 (SuperGen, Inc., priority 2002, dated 2002).
# For at least one compound, name, drawing or mass did not settle the structure.
# Settings: cited from earlier work
structure (smiles),measurement,value
CC[C@@](O)(C(=O)[O-])c1cc2n(c(=O)c1CO)Cc1cc3ccccc3nc1-2.[Na+] [Sodium camptothecin],Potency relative to native camptothecin with closed lactone ring,10%
